The supplement of paper PMC6411743
± gives the standard deviation of the averaged measurements. Only a part is listed here, and it is no random draw.

Sequences of proteins named here, by UniProt entry; tags and fusion partners are left off. A change or cut given only in a name is not applied to a line headed by its entry.
UniProt Q8N1B4: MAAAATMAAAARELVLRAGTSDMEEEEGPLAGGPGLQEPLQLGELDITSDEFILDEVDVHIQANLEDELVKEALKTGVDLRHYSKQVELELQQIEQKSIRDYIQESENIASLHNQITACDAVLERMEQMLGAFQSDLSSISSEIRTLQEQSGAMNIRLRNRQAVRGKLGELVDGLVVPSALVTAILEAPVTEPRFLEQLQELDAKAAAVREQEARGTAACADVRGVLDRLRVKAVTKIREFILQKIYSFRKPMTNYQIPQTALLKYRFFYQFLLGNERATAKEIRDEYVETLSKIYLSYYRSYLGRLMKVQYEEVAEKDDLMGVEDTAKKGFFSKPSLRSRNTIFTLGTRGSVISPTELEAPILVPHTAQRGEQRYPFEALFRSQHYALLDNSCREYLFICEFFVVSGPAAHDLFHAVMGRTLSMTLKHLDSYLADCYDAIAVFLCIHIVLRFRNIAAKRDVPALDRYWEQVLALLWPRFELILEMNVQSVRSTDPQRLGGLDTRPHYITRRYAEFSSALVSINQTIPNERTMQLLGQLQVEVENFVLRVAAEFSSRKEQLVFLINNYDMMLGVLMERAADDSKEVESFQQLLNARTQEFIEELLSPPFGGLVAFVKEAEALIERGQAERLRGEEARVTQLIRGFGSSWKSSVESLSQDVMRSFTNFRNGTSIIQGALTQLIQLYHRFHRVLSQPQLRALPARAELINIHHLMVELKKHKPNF
UniProt Q8IXW5, whole entry: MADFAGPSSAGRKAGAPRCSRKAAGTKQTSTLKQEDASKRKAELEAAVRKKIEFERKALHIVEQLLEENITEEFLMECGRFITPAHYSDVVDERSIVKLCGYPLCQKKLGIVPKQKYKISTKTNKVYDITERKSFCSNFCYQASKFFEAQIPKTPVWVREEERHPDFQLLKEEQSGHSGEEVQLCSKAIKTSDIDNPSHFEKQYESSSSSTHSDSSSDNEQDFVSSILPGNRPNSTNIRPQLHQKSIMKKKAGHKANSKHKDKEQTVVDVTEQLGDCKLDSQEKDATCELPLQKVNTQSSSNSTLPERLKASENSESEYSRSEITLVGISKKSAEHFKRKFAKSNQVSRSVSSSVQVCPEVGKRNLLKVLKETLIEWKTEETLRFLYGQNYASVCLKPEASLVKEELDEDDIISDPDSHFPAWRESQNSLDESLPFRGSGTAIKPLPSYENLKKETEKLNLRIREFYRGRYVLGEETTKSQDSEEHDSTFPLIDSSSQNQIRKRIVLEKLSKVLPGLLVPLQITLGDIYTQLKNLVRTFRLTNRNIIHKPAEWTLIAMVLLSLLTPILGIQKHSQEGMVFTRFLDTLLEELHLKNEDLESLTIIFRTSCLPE
UniProt Q8N488: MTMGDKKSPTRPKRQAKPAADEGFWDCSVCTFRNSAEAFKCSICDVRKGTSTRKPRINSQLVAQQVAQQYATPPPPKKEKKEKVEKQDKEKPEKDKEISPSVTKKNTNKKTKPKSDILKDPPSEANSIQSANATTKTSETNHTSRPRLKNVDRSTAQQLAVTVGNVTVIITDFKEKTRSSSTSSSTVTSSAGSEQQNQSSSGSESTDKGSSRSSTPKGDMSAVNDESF
UniProt Q8ND82: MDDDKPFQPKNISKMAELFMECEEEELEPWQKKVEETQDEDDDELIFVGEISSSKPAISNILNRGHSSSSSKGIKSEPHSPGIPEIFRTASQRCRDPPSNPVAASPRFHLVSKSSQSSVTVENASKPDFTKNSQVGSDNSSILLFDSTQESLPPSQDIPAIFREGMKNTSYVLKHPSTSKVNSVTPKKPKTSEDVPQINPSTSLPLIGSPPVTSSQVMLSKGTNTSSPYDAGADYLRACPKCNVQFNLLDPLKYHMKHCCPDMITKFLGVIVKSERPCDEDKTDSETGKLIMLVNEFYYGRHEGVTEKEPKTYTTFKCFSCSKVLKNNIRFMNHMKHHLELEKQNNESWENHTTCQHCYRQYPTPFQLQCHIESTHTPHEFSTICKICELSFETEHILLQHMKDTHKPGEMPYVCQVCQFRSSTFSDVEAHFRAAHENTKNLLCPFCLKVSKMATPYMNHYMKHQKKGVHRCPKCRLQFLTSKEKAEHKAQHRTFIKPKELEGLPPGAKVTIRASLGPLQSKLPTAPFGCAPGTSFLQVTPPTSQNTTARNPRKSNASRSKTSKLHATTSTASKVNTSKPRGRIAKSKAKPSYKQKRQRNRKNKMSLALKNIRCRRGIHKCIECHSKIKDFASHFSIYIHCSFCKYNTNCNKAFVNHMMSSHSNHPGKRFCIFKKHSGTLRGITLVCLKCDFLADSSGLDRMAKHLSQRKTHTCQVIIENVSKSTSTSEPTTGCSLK
UniProt Q8IW35: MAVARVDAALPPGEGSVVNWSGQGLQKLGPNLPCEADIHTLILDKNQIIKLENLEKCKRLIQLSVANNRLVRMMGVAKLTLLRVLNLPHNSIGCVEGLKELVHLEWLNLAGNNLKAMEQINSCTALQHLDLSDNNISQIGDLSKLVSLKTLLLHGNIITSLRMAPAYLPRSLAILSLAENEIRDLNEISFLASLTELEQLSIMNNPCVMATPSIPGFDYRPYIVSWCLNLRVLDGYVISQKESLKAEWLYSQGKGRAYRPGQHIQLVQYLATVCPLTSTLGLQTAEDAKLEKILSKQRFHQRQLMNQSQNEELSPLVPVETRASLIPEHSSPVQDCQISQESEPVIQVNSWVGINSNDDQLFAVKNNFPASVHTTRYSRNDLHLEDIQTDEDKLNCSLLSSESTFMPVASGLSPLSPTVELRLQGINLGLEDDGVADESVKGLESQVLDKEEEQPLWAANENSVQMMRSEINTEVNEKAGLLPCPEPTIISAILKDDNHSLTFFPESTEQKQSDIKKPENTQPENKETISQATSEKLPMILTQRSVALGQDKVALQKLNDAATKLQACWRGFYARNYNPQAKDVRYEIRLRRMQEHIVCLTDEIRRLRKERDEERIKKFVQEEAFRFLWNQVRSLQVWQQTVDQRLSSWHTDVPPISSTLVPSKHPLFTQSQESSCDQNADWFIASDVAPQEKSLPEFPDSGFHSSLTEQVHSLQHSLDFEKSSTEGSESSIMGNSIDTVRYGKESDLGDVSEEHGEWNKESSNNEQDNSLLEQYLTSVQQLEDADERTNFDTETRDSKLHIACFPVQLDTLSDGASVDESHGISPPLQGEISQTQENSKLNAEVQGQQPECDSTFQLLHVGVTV
UniProt Q8NCC3: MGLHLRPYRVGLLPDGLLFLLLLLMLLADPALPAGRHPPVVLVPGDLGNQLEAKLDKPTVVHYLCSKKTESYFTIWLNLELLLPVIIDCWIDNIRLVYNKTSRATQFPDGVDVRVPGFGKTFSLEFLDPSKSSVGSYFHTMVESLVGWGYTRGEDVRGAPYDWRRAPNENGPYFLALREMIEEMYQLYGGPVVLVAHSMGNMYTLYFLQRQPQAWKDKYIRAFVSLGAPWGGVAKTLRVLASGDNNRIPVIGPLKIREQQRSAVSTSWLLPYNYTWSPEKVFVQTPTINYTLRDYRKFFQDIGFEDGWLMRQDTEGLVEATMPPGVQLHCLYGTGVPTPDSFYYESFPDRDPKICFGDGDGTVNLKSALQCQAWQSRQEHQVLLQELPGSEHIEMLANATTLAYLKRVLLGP
UniProt Q8N6T3: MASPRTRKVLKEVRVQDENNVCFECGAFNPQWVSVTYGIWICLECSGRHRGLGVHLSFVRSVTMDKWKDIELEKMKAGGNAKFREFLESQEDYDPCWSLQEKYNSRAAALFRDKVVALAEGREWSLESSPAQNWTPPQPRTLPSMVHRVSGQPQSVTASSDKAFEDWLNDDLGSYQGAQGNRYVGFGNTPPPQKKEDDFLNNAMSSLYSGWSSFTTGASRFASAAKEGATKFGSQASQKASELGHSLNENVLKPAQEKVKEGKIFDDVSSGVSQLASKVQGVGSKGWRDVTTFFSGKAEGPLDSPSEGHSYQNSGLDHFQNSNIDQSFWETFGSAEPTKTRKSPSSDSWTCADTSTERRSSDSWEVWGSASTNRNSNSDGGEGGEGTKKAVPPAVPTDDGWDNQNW
UniProt Q8N6S5: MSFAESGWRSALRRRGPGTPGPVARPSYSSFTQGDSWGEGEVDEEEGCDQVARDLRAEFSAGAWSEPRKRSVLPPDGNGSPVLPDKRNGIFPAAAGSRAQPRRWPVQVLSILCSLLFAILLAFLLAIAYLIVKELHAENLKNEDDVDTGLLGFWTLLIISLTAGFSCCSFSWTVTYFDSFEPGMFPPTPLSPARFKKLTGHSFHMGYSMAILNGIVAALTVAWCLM

Compound: Nc1ncnc2c1ncn2[C@@H]1O[C@H](COP(=O)(O)OP(=O)(O)OP(=O)(O)O)[C@@H](O)[C@H]1O [adenosine triphosphate]
Assay: NP40-soluble protein abundance relative to vehicle (solubility fold change) (ratio); higher = more soluble protein in presence of ATP
Summary of the method: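 Values are fold changes against the detergent-processed vehicle, based on vsn-normalised intensities. Jurkat crude lysate was treated at eight concentrations from 0.1 to 10 mM (10 min at room temperature, then 3 min at 37 °C), solubilised with 0.8% NP40 and benzonase, ultracentrifuged and analysed by TMT-labelled LC-MS/MS over three independent experiments.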

Row | Target | NP40-soluble protein abundance (concentration: 1mM) | NP40-soluble protein abundance (concentration: 2mM) | NP40-soluble protein abundance (concentration: 4mM) | NP40-soluble protein abundance (concentration: 6mM) | NP40-soluble protein abundance (concentration: 8mM) | NP40-soluble protein abundance (concentration: 10mM)
1 | VPS52 (UniProt Q8N1B4) | 1.06 ± 0.079 | 0.996 ± 0.049 | 0.991 ± 0.06 | 0.961 ± 0.041 | 1.01 ± 0.067 | 0.973 ± 0.049
2 | UniProt Q8IXW5 and related entries | 0.967 ± 0.032 | 0.959 ± 0.011 | 0.975 ± 0.052 | 0.951 ± 0.033 | 0.976 ± 0.056 | 0.992 ± 0.034
3 | RYBP (UniProt Q8N488) | 1.03 ± 0.094 | 1.03 ± 0.052 | 1.05 ± 0.061 | 1.081 ± 0.0025 | 0.985 ± 0.027 | 1.01 ± 0.057
4 | UniProt Q8ND82 and related entries | 1 ± 0.081 | 0.9769 ± 0.0073 | 1.03 ± 0.086 | 1 ± 0.077 | 0.936 ± 0.04 | 0.987 ± 0.064
5 | UniProt Q8IW35 and related entries | 0.974 ± 0.027 | 0.979 ± 0.015 | 0.987 ± 0.029 | 0.966 ± 0.02 | 0.992 ± 0.038 | 1.02 ± 0.051
6 | PLA2G15 (UniProt Q8NCC3) | 0.914 ± 0.05 | 0.96 ± 0.042 | 0.962 ± 0.027 | 0.966 ± 0.036 | 0.901 ± 0.042 | 0.93 ± 0.078
7 | ARFGAP1 (UniProt Q8N6T3) | 0.95 ± 0.025 | 0.946 ± 0.0078 | 0.9122 ± 0.0079 | 0.965 ± 0.035 | 0.8935 ± 0.0073 | 0.91 ± 0.023
8 | ARL6IP6 (UniProt Q8N6S5) | 1.02 ± 0.036 | 1 ± 0.019 | 1.03 ± 0.017 | 0.975 ± 0.031 | 1.02 ± 0.031 | 1.02 ± 0.032

As entered above.
Value of UniProt Q8IW35 and related entries under NP40-soluble protein abundance (concentration: 8mM): 0.992 ± 0.038
Value of PLA2G15 (UniProt Q8NCC3) under NP40-soluble protein abundance (concentration: 8mM): 0.901 ± 0.042
